Source: PMC11736009
No constants are given. Whether binding was seen depends on the method and setting. In cells and extracts the contact can be indirect. Tags and fused reporters may be left off the sequences shown.

Target: full-length Diaph3 with the DD domain deleted (mouse) (UniProt Q9Z207)
Assay: co-IP; HEK293T cells cotransfected, harvested 48 h later; lysate incubated with Flag beads at 4 °C overnight, washed 3 to 4 times with lysis buffer; Western blot

For DETGVMDSLLEALQSGAAFRDRRKRTPKLKD (domain or fragment, UniProt Q9Z207 1036-1066) [Diaph3 DAD-HA], which binding is on record?
Its binding is “no binding”.
